According to publication PMC11225310:
These are yes or no findings as the source states them, for the method shown. Binding seen in cells or lysates may run through a third protein. Some entries that bind do so weakly or less than the wild type.

The chains behind the UniProt entries cited, without tags or fusion partners. Where a name states a change or a piece, a line headed by the entry shows the natural chain unless it says otherwise. Residues count along the entry.
UniProt P40763: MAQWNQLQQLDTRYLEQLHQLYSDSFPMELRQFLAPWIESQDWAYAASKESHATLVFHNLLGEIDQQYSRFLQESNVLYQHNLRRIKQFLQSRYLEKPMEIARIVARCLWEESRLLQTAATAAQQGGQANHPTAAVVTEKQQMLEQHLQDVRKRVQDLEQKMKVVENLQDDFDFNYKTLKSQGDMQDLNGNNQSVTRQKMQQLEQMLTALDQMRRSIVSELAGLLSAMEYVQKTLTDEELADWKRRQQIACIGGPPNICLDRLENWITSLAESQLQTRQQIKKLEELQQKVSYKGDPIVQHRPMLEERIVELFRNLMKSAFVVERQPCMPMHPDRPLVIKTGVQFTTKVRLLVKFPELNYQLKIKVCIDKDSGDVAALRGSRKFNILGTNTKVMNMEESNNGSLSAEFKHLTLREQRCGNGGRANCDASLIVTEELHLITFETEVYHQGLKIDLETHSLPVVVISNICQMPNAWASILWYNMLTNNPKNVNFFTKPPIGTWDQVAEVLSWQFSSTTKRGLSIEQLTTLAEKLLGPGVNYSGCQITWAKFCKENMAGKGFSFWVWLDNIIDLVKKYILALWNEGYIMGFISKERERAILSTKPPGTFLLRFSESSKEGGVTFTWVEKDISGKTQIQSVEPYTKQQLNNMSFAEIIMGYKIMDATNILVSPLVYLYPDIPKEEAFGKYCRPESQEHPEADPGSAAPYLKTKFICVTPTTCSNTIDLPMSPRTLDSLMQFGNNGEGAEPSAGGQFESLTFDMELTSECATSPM
STAT3 fragment with the SH2 domain: residues 580-670 of P40763
UniProt Q14680: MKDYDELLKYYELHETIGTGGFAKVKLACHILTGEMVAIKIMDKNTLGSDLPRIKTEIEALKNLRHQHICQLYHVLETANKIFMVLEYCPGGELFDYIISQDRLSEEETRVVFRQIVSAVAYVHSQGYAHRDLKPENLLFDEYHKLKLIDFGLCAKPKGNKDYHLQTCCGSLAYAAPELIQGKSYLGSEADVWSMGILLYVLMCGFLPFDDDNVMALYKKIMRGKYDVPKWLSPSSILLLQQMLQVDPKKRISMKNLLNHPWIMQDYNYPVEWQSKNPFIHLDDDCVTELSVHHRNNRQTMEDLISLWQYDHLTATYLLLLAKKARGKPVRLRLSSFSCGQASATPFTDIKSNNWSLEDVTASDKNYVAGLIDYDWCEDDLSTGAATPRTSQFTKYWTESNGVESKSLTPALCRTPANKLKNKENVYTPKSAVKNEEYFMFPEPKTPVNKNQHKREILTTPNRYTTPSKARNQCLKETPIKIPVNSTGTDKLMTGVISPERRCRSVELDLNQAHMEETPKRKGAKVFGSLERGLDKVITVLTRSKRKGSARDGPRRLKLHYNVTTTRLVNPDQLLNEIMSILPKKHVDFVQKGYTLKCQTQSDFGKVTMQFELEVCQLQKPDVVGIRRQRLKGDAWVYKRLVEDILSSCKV

How the values were obtained:
[1] = target: STAT3 fragment with the SH2 domain (UniProt P40763); test: co-IP; truncated mutants of MELK and of STAT3 tested against the other protein; the method is not named for this experiment (CoIP is the only such method in the paper's methods); cells not named
[2] = target: Maternal embryonic leucine zipper kinase (MELK) (human (in SK-HEP1 and HCC-LM3 cells)) (UniProt Q14680); test: co-IP; lysates of SK-HEP1 and HCC-LM3 cells in IP buffer; antibody (MELK, STAT3 or normal rabbit IgG) on Protein A/G magnetic beads, 4 °C overnight; washed with PBST; immunoblot

binding [1]	binding [2]	Substance
binds		MELK (partner in the mapping of STAT3 fragments) (from UniProt Q14680 1-651)
	binds	STAT3 (from UniProt P40763 1-770)
